According to US20260053958A1 (GRAFTON THERAPEUTICS SÀRL, priority 2022, published 2026):

Test: general procedure: Fmoc solid-phase peptide synthesis; Fmoc-Rink-Amide MBHA resin, 0.71 mmol/g
Details: whole synthesis; for isolated yield: overall
[1] = scale of the general procedure 0.33 mmol

Row | Substance | crude mass [mg] | isolated mass [mg] | isolated yield [1] [%] | isolated yield (scale 0.5 mmol) [%] | crude mass (scale 0.5 mmol) [mg] | isolated mass (scale 0.5 mmol) [mg]
1 | (4-amino-3-Cl)-D-Phe-c[Cys-(3-Cl)-Tyr-D-Trp-Lys-Val-Cys]-Thr-NH2 | 313 | 19.1 | 6.1 | – | – | –
2 | (4-amino-3-I)-D-Phe-c[Cys-(3-Cl)-Tyr-D-Trp-Lys-Val-Cys]-Thr-NH2 [Compound 1] | 305 | 14.5 | 4.75 | – | – | –
3 | (4-amino-3-F)-D-Phe-c[Cys-(3-F)-Tyr-D-Trp-Lys-Val-Cys]-Thr-NH2 | – | – | – | 3.15 | 285 | 9.45
4 | (4-amino-3-Br)-D-Phe-c[Cys-(3-Br)-Tyr-D-Trp-Lys-Val-Cys]-Thr-NH2 | – | – | – | 2.40 | 262 | 6.3
5 | (4-amino-3-Cl)-D-Phe-c[Cys-(3-I)-Tyr-D-Trp-Lys-Val-Cys]-Thr-NH2 [Compound 2] | 293 | 13.76 | 4.7 | – | – | –
